The target in assay [1] is STIM1-FLAG (Stromal Interaction Molecule 1, FLAG-tagged) (human) (UniProt Q13586). As to the kind of experiment: co-IP; A549 cells expressing STIM1-FLAG (or mutants) and TRPC1-myc (or DDAA), treated with or without 800 μM PQ for 30 min; RIPA lysate, FLAG-M2 beads or Myc beads as indicated, 3 h at 4 °C.
For assay [2] the target is unchanged. In words: co-IP; A549 cells stably expressing STIM1-FLAG or STIM1ΔK-FLAG, treated with or without 800 μM PQ for 24 h; RIPA lysate, FLAG-M2 beads 3 h at 4 °C, washed with PBS; blots for ORAI1 and TRPC1.

Chains of the proteins cited; added tags and fusions are not shown. Lines headed by an entry give the natural chain unless they say otherwise; changes in a name come on top. A line that says so, or that is headed by a name, gives the form on record, which may keep a tag or linker.
UniProt Q13586: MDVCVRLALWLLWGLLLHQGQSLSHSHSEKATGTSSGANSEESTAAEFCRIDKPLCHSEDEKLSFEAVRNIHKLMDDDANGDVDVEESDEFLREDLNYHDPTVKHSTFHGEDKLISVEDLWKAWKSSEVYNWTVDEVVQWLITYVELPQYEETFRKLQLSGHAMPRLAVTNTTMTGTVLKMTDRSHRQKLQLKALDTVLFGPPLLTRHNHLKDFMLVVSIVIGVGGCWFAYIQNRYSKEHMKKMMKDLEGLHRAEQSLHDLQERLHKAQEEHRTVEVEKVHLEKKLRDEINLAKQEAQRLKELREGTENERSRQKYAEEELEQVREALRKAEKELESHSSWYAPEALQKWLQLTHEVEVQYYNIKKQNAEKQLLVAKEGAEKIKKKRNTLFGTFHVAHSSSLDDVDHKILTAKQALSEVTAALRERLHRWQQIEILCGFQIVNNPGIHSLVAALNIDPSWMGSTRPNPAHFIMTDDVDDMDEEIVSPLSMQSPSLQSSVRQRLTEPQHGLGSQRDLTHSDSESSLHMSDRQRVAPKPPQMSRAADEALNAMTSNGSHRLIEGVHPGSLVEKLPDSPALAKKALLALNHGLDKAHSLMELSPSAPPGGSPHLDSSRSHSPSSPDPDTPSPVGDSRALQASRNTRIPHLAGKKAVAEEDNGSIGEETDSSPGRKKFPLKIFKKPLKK
Transient Receptor Potential Cation Channel Subfamily C Member 1 (TRPC1), endogenous in A549 cells (P48995-2, form named): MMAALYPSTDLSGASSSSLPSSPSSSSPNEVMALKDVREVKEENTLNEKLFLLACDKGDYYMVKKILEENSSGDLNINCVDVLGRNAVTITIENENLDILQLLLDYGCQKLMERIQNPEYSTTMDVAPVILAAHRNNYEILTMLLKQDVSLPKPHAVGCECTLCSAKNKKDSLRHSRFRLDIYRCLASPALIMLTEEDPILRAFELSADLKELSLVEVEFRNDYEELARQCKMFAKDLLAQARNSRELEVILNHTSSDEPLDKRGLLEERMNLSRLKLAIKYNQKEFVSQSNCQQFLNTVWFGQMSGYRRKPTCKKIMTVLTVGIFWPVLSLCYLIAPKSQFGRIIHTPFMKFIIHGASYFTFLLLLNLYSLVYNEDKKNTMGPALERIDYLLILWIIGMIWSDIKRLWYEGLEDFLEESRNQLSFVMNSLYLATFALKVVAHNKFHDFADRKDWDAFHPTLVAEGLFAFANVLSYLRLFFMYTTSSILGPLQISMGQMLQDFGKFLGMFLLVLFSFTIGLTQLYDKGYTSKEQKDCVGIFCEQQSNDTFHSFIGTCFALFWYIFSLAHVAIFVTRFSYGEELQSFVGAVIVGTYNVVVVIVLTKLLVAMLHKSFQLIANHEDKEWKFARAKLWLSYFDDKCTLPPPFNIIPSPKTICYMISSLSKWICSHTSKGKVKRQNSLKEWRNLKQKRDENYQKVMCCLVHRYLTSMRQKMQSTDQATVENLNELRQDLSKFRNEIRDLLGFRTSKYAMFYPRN
TRPC1 D639A&D640A-myc (DDAA) (P48995-2, form named): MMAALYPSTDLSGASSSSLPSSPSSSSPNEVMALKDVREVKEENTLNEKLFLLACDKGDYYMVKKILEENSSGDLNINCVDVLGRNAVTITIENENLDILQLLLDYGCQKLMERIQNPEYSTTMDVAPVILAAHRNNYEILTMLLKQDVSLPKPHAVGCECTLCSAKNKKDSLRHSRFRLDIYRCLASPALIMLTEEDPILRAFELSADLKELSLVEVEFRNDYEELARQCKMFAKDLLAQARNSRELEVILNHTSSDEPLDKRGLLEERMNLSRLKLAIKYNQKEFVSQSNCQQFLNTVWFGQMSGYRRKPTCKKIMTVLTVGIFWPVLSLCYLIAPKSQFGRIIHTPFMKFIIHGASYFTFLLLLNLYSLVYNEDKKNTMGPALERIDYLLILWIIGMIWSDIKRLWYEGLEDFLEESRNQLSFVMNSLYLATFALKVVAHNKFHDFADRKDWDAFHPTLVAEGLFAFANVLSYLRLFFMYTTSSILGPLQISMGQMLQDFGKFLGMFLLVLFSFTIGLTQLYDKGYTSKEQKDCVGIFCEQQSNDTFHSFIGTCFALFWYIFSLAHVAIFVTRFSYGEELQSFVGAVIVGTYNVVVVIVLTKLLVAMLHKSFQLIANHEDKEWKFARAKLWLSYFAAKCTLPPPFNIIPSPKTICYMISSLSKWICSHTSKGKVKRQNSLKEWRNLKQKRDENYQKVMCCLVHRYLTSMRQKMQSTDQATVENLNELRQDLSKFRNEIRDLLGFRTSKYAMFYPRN

No constants are given. Whether binding was seen depends on the method and setting. Binding seen in cells or lysates may run through a third protein. Binding calls can cover weak binding; strength is not graded here.

As for TRPC1-myc (from UniProt P48995-2 1-759), in assay [1], the binding entry is recorded as “binds”.

On to “TRPC1 D639A&D640A-myc (DDAA) (from UniProt P48995-2 1-759)”, for which the binding entry in assay [1] is reported as “binds”.

Turning to “Transient Receptor Potential Cation Channel Subfamily C Member 1 (TRPC1), endogenous in A549 cells (from UniProt P48995-2 1-759)”, the binding result in assay [2] was “binds”.

These data come from article PMC9618025.
